From patent publication US6130204A (Merck & Co., Inc., priority 1998, dated 2000)
Part of at least one peptide drawing is inferred or uncertain, most often the ends. Ends that are not written are not given here.

System: LNCaP prostate tumor cells
Experiment: In vitro cytotoxicity of peptidyl derivatives of doxorubicin (Alamar Blue assay)
Type: cell-based, human
Settings: FIG. 4; unconjugated oligopeptide alone
Protocol: The cytotoxicities of the non-cleaveable oligopeptide-doxorubicin conjugates, prepared as described in Example 4, against a line of cells which is known to be killed by unmodified doxorubicin were assessed with an Alamar Blue assay. Specifically, cell cultures of LNCaP prostate tumor cells, which are a human metastatic prostate adenocarcinoma isolated from a needle biopsy of a lymph node (LNCaP.FGC: American Type Culture Collection, ATCC CRL 1740), or DuPRO cells in 96 well plates were diluted with medium containing various concentrations of a given conjugate (final plate well volume of 200 μl). The cells were incubated for 3 days at 37° C. and then 20 μl of Alamar Blue was added to the assay well. The cells were further incubated and the assay plates were read on a EL-310 ELISA reader at the dual wavelengths of 570 and 600 nm at 4 and 7 hours after addition of Alamar Blue. Relative percentage viability at the various concentration of conjugate tested was then calculated versus control (no conjugate) cultures. Cytotoxicities of unmodified doxorubicin and unmodified oligopeptide were also assessed.

Ac-AGPTGASA [oligopeptide]
cell killing activity: no detectable cell killing activity
